Taken from: PubChem BioAssay AID686938 (Drosophila RNAi Screening Center, 2013)
The screen tested about 23,000 reagents; below is an unselected part of those that have a named target and a result. Over the whole deposit, 75 (0.33%) got an active call. 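Raw plate signals without normalisation; calls rest on plate z-scores that were not deposited; ratio present for only 364 wells.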 Reagent sequences are not shown. The record does not give: the dose of the treatment.

- Test: 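Knock-downs reducing store-operated calcium influx in Drosophila cells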 (primary screen)
- System: Drosophila S2R+ cells
- Reagents: long dsRNA against Drosophila genes, about 0.25 µg dsRNA per well, roughly 10,000 cells
- Time to read-out: 5 days of knock-down before the calcium assay
- Conditions: thapsigargin (SERCA pump blocker) to empty calcium stores; entry signal taken 4 min after adding it
- Detection: 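Per-well fluo-4 fluorescence in two replicates, unnormalised, measured in resting cells and 4 min after store depletion by the SERCA blocker thapsigargin; ratio of the two present in few wells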
- Direction: calcium entry signal: higher = stronger calcium signal after store depletion; entry to resting ratio: higher = more calcium entry relative to resting level; resting calcium signal: higher = higher resting calcium signal
- Active means: 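Hit if the duplicate-averaged plate z-score for entry over resting signal is under −3; wells with weak total dye signal (Fmax z < −2) or more than 5 off-targets removed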
- Meaning of the calls: active = strongly reduced calcium entry; inactive = no strong reduction

| gene knocked down | DRSC id | calcium entry signal, replicate 1 (fluorescence units) | calcium entry signal, replicate 2 (fluorescence units) | entry to resting ratio | resting calcium signal, replicate 1 (fluorescence units) | resting calcium signal, replicate 2 (fluorescence units) | activity call |
| --- | --- | --- | --- | --- | --- | --- | --- |
| CG13376 (GeneID 3346142) | DRSC17901 | 3.95e7 | 5.80e7 | 2.1 | 1.89e7 | 2.44e7 | inactive |
| Coa7 (GeneID 3355158) | DRSC20967 | 2.65e7 | 3.77e7 | – | 1.51e7 | 1.82e7 | inactive |
| vri (GeneID 33759) | DRSC03633 | 4.50e7 | 4.59e7 | – | 2.53e7 | 2.14e7 | inactive |
| vri (GeneID 33759) | DRSC23174 | 5.57e7 | 2.64e7 | – | 2.70e7 | 1.28e7 | inactive |
| CG43610 (GeneID 12798580) | DRSC00949 | 2.99e7 | 3.66e7 | – | 1.64e7 | 1.57e7 | inactive |
| Est-6 (GeneID 39392) | DRSC11162 | 3.30e7 | 3.69e7 | – | 1.71e7 | 1.82e7 | inactive |
| Bsg (GeneID 318841) | DRSC01010 | 3.32e7 | 3.83e7 | – | 1.88e7 | 1.79e7 | inactive |
| Bsg (GeneID 318841) | DRSC01011 | 4.13e7 | 5.08e7 | – | 3.02e7 | 3.98e7 | inactive |
| CG12290 (GeneID 43182) | DRSC14497 | 2.94e7 | 3.67e7 | – | 1.37e7 | 1.79e7 | inactive |
| CG13288 (GeneID 38665) | DRSC09962 | 1.86e7 | 4.25e7 | – | 8.75e6 | 1.73e7 | inactive |
| AstC-R2 (GeneID 40019) | DRSC10051 | 3.11e7 | 4.39e7 | – | 1.81e7 | 1.70e7 | inactive |
| plh (GeneID 40615) | DRSC12294 | 2.92e7 | 4.70e7 | – | 1.42e7 | 2.14e7 | inactive |
| Gcn2 (GeneID 43709) | DRSC16678 | 1.82e7 | 2.45e7 | – | 9.67e6 | 1.39e7 | inactive |
| SerRS-m (GeneID 41862) | DRSC14096 | 3.25e7 | 4.49e7 | – | 1.51e7 | 6.18e7 | inactive |
| RpL7-like (GeneID 34625) | DRSC02836 | 1.44e7 | 2.91e7 | – | 9.51e6 | 1.53e7 | inactive |
| Src64B (GeneID 48973) | DRSC08700 | 2.45e7 | 4.48e7 | – | 1.16e7 | 1.80e7 | inactive |
| CG4945 (GeneID 36850) | DRSC06904 | 3.54e7 | 3.59e7 | – | 1.74e7 | 1.78e7 | inactive |
| CG31076 (GeneID 318582) | DRSC16017 | 3.13e7 | 5.11e7 | – | 1.66e7 | 2.30e7 | inactive |
| CG14454 (GeneID 40482) | DRSC11711 | 2.04e7 | 3.64e7 | – | 1.08e7 | 1.57e7 | inactive |
| CG1344 (GeneID 35500) | DRSC04837 | 3.79e7 | – | – | 1.94e7 | – | inactive |
| CG14339 (GeneID 33286) | DRSC00369 | 6.27e7 | 5.40e7 | – | 2.45e7 | 2.13e7 | inactive |
| CG9021 (GeneID 33818) | DRSC03128 | 4.27e7 | – | – | 2.32e7 | – | inactive |
| CG6415 (GeneID 34474) | DRSC02954 | 4.44e7 | – | – | 2.05e7 | – | inactive |
| THADA (GeneID 33001) | DRSC19675 | 3.41e7 | 3.96e7 | – | 1.61e7 | 1.84e7 | inactive |
| NimB2 (GeneID 260645) | DRSC22645 | 4.57e7 | 3.08e7 | – | 2.43e7 | 1.43e7 | inactive |
| CG43691 (GeneID 14462585) | DRSC06650 | 3.42e7 | 3.14e7 | – | 1.80e7 | 1.50e7 | inactive |
| CG43691 (GeneID 14462585) | DRSC06651 | 3.39e7 | 3.78e7 | – | 1.74e7 | 1.69e7 | inactive |
| mRpS18B (GeneID 35299) | DRSC02107 | 4.37e7 | – | – | 2.25e7 | – | inactive |
| AANATL6 (GeneID 37212) | DRSC06773 | 4.59e7 | 4.74e7 | – | 1.95e7 | 2.25e7 | inactive |
| mRpL33 (GeneID 50381) | DRSC18319 | 3.74e7 | 5.55e7 | – | 1.67e7 | 2.20e7 | inactive |
| mtm (GeneID 33845) | DRSC03576 | 5.89e7 | – | – | 3.24e7 | – | inactive |
| Pits (GeneID 32205) | DRSC19385 | 1.99e7 | 3.05e7 | – | 1.32e7 | 2.05e7 | active |
| Pits (GeneID 32205) | DRSC19812 | 3.02e7 | 4.98e7 | – | 1.52e7 | 2.54e7 | inactive |
| clumsy (GeneID 35394) | DRSC03111 | 5.35e7 | 4.54e7 | – | 2.59e7 | 2.13e7 | inactive |
| Gr36a (GeneID 117488) | DRSC22663 | 2.94e7 | 2.48e7 | – | 1.41e7 | 1.10e7 | inactive |
| Ugt35A1 (GeneID 41334) | DRSC16892 | 3.90e7 | 4.98e7 | – | 1.71e7 | 2.12e7 | inactive |
| Gr2a (GeneID 31093) | DRSC18603 | 5.96e7 | 5.61e7 | 2.3 | 2.54e7 | 2.28e7 | inactive |
| Acsf3 (GeneID 31668) | DRSC18146 | 4.07e7 | 4.47e7 | – | 1.94e7 | 1.98e7 | inactive |
| CG7407 (GeneID 40430) | DRSC11824 | 3.30e7 | 3.96e7 | – | 1.57e7 | 2.60e7 | inactive |
| Lar (GeneID 35259) | DRSC01707 | 2.56e7 | 4.20e7 | – | 1.60e7 | 2.01e7 | inactive |
| Lar (GeneID 35259) | DRSC03361 | 4.46e7 | – | – | 2.35e7 | – | inactive |

Reagents listed above called active:
| gene knocked down | DRSC id | calcium entry signal, replicate 1 (fluorescence units) | calcium entry signal, replicate 2 (fluorescence units) | entry to resting ratio | resting calcium signal, replicate 1 (fluorescence units) | resting calcium signal, replicate 2 (fluorescence units) | activity call |
| --- | --- | --- | --- | --- | --- | --- | --- |
| Pits (GeneID 32205) | DRSC19385 | 1.99e7 | 3.05e7 | – | 1.32e7 | 2.05e7 | active |
